Data: the supplement of paper PMC10849652
Some of the results follow.

Protein sequences, listed by entry. Tags and fused reporters are not part of them. Lines headed by an entry give the natural chain unless they say otherwise; changes in a name come on top.
UniProt Q8NBJ9: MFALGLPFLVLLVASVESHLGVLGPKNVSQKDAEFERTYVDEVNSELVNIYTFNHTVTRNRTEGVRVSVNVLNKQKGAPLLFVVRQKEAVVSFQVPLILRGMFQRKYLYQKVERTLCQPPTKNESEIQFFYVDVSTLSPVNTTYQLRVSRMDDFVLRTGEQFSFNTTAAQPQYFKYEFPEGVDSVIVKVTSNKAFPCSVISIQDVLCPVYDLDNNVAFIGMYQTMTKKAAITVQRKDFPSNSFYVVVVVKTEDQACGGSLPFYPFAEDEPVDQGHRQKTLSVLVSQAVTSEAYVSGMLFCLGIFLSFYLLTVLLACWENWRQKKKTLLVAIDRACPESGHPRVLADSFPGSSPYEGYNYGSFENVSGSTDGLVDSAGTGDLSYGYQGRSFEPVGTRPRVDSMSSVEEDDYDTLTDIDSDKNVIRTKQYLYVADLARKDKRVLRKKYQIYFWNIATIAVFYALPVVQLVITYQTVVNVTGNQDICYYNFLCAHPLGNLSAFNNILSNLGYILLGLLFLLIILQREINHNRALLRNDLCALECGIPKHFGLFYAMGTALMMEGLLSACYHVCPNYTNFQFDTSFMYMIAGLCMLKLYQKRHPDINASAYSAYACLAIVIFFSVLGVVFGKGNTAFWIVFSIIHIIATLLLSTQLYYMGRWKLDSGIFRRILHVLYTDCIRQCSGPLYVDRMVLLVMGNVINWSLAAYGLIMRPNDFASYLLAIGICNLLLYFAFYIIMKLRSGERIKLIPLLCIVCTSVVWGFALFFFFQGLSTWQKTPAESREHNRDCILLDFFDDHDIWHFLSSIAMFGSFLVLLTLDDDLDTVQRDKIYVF
UniProt P36955: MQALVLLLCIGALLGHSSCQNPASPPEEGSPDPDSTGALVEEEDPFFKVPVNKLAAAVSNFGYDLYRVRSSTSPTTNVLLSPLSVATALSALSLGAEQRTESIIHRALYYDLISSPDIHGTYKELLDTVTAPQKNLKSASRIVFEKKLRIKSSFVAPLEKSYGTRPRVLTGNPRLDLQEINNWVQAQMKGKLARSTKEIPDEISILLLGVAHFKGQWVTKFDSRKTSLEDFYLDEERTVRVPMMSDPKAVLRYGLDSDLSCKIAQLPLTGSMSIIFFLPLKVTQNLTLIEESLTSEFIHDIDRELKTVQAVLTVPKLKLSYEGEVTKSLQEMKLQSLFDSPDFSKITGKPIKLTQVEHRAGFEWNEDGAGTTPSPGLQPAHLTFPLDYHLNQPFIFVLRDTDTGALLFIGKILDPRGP
UniProt Q96EE3: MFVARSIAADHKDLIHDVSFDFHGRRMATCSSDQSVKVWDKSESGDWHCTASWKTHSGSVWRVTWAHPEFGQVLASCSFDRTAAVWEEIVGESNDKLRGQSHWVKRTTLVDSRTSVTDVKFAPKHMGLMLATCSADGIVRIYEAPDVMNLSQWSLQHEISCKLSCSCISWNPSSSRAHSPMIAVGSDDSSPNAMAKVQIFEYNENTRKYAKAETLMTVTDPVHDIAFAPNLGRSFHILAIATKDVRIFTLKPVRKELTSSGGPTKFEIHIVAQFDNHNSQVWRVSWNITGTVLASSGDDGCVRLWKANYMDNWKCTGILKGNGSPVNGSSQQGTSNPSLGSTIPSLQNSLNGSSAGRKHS
UniProt Q86TU7: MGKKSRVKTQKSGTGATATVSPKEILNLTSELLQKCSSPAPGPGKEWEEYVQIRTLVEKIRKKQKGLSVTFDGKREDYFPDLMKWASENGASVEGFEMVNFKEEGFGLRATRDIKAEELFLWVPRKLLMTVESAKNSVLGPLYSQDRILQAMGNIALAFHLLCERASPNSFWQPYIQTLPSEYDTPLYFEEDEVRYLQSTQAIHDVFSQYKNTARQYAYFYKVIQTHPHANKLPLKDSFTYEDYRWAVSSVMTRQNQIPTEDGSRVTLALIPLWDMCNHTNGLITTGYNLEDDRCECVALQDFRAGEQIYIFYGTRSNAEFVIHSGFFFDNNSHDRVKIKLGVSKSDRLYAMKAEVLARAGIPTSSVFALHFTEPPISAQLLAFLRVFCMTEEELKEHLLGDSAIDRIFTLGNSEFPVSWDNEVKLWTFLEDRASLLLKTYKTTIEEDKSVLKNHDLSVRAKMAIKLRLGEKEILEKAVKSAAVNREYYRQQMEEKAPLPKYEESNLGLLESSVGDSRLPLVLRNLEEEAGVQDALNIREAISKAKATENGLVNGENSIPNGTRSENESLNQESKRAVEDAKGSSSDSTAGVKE
UniProt O43236: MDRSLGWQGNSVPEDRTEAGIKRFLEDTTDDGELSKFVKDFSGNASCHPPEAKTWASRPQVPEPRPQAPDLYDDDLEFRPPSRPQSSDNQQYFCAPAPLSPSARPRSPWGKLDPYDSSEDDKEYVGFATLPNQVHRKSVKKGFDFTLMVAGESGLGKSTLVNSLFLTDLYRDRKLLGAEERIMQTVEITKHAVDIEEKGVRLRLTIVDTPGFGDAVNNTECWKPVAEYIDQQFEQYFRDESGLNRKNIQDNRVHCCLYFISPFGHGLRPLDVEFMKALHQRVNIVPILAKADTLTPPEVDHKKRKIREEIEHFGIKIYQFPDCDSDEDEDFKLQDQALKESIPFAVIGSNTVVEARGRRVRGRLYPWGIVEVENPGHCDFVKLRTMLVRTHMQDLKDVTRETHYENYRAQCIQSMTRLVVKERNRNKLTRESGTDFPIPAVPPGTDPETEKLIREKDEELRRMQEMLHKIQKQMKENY
UniProt Q8NEM2: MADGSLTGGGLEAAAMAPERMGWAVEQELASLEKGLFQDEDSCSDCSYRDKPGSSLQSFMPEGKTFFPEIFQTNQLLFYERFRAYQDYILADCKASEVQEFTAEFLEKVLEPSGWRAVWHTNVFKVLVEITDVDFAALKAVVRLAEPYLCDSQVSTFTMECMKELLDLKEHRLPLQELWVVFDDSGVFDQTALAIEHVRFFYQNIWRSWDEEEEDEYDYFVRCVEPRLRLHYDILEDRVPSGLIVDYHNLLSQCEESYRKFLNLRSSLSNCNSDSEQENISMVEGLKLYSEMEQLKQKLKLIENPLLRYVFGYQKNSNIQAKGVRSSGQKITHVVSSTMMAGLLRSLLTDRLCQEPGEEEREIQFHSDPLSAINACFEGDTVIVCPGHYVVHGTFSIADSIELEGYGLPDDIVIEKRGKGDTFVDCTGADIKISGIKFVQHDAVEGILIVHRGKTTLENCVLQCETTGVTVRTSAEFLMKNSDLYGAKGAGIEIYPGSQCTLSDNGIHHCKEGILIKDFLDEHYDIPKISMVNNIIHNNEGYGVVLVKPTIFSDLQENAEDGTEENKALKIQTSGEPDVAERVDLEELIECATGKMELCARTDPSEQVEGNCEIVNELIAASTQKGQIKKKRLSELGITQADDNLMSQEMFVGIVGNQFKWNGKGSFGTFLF
UniProt Q99611, whole entry, looked up: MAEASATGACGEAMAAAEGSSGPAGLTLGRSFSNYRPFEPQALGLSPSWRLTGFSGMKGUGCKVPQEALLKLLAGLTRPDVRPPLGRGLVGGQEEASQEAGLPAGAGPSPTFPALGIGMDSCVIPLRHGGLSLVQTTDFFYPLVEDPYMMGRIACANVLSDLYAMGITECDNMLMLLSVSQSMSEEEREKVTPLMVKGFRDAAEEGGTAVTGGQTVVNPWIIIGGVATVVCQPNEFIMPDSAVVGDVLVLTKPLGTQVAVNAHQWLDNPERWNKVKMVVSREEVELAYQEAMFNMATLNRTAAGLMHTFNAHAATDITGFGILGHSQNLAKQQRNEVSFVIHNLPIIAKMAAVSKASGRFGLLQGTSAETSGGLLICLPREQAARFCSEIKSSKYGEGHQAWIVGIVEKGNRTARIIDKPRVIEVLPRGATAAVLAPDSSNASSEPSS
UniProt P29353: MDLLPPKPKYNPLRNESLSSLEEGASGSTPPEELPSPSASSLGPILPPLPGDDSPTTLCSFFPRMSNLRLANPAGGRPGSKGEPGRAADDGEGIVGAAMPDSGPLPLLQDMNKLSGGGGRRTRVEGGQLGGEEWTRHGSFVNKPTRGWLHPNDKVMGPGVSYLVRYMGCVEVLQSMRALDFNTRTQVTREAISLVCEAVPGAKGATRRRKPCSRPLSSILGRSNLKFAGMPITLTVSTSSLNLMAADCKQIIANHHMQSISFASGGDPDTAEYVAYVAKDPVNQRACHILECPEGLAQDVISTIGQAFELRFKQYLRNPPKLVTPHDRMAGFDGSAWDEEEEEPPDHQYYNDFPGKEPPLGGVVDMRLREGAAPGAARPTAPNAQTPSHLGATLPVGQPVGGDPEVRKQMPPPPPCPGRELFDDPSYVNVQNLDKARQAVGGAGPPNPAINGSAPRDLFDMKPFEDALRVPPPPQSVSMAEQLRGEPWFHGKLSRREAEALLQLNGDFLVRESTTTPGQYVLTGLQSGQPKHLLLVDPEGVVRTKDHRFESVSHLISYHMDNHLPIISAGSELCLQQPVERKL
UniProt Q13530: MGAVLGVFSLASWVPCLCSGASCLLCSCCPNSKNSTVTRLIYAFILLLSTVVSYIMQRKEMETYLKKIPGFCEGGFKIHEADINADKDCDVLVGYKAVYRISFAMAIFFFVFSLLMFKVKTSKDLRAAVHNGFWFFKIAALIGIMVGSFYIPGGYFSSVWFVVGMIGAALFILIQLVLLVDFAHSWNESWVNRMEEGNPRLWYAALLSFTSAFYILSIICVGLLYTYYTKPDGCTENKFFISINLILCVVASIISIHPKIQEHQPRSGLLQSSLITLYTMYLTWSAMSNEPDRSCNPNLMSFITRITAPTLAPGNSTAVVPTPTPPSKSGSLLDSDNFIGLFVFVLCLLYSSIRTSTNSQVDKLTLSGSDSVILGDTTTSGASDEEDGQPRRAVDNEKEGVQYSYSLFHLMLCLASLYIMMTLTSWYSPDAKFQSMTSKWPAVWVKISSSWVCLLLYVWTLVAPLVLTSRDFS
UniProt Q68CR1: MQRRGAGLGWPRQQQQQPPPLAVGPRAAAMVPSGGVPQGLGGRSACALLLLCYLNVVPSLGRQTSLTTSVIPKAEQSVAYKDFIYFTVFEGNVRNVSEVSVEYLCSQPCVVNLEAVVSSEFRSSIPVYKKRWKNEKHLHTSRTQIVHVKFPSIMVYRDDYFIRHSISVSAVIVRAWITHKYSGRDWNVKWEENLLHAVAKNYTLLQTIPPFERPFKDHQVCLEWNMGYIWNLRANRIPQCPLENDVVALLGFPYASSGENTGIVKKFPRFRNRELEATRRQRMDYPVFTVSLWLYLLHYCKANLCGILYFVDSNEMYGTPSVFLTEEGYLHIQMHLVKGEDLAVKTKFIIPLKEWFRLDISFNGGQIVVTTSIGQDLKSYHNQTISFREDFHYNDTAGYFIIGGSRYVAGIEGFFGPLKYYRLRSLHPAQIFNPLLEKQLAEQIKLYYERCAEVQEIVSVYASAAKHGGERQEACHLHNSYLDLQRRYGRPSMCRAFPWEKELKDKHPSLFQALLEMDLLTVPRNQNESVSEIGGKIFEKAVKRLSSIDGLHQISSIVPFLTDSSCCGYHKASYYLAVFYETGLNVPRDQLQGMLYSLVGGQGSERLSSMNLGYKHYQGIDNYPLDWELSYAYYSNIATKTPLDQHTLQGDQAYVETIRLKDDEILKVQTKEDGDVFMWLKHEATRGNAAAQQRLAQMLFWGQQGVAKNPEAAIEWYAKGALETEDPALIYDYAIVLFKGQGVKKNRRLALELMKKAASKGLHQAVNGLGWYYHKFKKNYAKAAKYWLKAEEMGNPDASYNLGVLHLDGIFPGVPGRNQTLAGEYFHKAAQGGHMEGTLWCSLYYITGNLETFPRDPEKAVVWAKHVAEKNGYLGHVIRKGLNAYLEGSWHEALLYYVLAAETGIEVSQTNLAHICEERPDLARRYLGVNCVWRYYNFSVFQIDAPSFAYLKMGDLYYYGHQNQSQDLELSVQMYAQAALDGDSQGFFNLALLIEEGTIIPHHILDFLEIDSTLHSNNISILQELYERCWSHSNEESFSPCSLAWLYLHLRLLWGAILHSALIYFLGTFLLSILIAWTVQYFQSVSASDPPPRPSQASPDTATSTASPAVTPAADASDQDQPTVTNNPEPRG
UniProt Q8TD22: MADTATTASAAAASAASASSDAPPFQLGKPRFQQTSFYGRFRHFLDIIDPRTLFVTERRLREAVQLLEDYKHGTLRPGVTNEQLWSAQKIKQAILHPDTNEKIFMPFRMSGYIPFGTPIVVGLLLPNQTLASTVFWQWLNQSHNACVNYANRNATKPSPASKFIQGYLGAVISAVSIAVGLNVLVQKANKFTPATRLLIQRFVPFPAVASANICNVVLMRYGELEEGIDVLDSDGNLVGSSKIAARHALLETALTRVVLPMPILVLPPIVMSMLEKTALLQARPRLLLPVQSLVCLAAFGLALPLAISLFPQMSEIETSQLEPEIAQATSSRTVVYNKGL
UniProt O60613, whole entry, looked up: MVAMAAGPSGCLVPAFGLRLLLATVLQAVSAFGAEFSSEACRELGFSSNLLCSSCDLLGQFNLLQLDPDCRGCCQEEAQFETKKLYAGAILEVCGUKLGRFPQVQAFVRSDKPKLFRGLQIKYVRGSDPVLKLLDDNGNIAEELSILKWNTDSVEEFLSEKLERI

compound: C1=CC2=C(C=CC(=C2)/C=C\3/C(=O)NC(=NCC4=CC=CS4)S3)N=C1; test: log2 fold change, soluble protein after heating vs DMSO (PISA); higher = thermal stabilisation; K562 cells, 10 uM, 30 min; active = over 0.2 and 3.5 SD of the protein, either way, in both replicates (recomputed)
Summary of the method: (§1)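 K562 cells at 2×10^6 cells/mL were exposed to 10 μM compound for 30 min, then aliquots were heated for 3 min across 48°C-58°C, pooled, and extracted in PBS containing 0.5% NP-40 at 4°C. The supernatant after 21,000xg for 90 min was taken as soluble protein and measured by TMTpro 16plex LC-MS/MS with channel sums equalised. Thermal stability is reported relative to control samples, with values from duplicates. Fold changes are given on a log2 scale.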

| Target | log2 fold change |
| --- | --- |
| SFXN2 (UniProt Q96NB2) | inactive: 0.084 |
| SESN2 (UniProt P58004) | inactive: 0.016 |
| SGPL1 (UniProt O95470) | inactive: 0.05 |
| SGTA (UniProt O43765) | inactive: 0.007 |
| SIDT2 isoform 2 (UniProt Q8NBJ9) | inactive: 0.042 |
| SHOC2 (UniProt Q9UQ13) | inactive: 0.051 |
| SEPSECS (UniProt Q9HD40) | inactive: -0.035 |
| SERINC1 (UniProt Q9NRX5) | inactive: -0.026 |
| SERPINF1 (UniProt P36955) | inactive: 0.051 |
| SIN3A (UniProt Q96ST3) | inactive: -0.055 |
| SEH1L isoform 1 (UniProt Q96EE3) | inactive: 0.049 |
| SETD3 (UniProt Q86TU7) | inactive: 0.06 |
| SEPTIN9 (UniProt Q9UHD8) | inactive: 0.002 |
| SEPTIN4 isoform 4 (UniProt O43236) | inactive: -0.206 |
| SHCBP1 (UniProt Q8NEM2) | inactive: 0.137 |
| SENP6 (UniProt Q9GZR1) | inactive: -0.029 |

| Target | log2 fold change |
| --- | --- |
| SELENOH (UniProt Q8IZQ5) | active: -0.297 |
| SETMAR (UniProt Q53H47) | inactive: 0.133 |
| SKP1 (UniProt P63208) | inactive: -0.048 |
| SH3GLB2 (UniProt Q9NR46) | inactive: 0 |
| SEPHS2 (UniProt Q99611) | inactive: -0.031 |
| SERPINA7 (UniProt P05543) | inactive: 0.15 |
| SERPINB6, A0A087X1N8 | inactive: -0.001 |
| SHC1 isoform 6 (UniProt P29353) | inactive: 0.04 |
| SERINC3 (UniProt Q13530) | inactive: -0.043 |
| SEL1L3 (UniProt Q68CR1) | inactive: -0.013 |
| SFXN5 (UniProt Q8TD22) | inactive: -0.003 |
| SH3GL1 (UniProt Q99961) | inactive: 0.058 |
| SEPTIN5 (UniProt Q99719) | inactive: 0.004 |
| SIRT2 (UniProt Q8IXJ6) | inactive: -0.113 |
| SIGMAR1 (UniProt Q99720) | inactive: -0.01 |
| SELENOF (UniProt O60613) | inactive: -0.007 |

compound: C1=CC2=NC=CN=C2C=C1/C=C/3\C(=O)NC(=O)S3; test: as above
Summary of the method: as §1

| Target | log2 fold change |
| --- | --- |
| SFXN2 (UniProt Q96NB2) | inactive: 0.009 |
| SESN2 (UniProt P58004) | inactive: 0.007 |
| SGPL1 (UniProt O95470) | inactive: -0.029 |
| SGTA (UniProt O43765) | inactive: 0.045 |
| SIDT2 isoform 2 (UniProt Q8NBJ9) | inactive: 0.087 |
| SHOC2 (UniProt Q9UQ13) | inactive: 0.028 |
| SEPSECS (UniProt Q9HD40) | inactive: 0.011 |
| SERINC1 (UniProt Q9NRX5) | inactive: 0.085 |
| SERPINF1 (UniProt P36955) | inactive: -0.039 |
| SIN3A (UniProt Q96ST3) | inactive: 0.048 |
| SEH1L isoform 1 (UniProt Q96EE3) | inactive: 0.064 |
| SETD3 (UniProt Q86TU7) | inactive: 0.002 |
| SEPTIN9 (UniProt Q9UHD8) | inactive: -0.001 |
| SEPTIN4 isoform 4 (UniProt O43236) | inactive: 0.091 |
| SHCBP1 (UniProt Q8NEM2) | inactive: 0.028 |
| SENP6 (UniProt Q9GZR1) | inactive: 0.08 |

| Target | log2 fold change |
| --- | --- |
| SELENOH (UniProt Q8IZQ5) | inactive: -0.002 |
| SETMAR (UniProt Q53H47) | inactive: -0.029 |
| SKP1 (UniProt P63208) | inactive: 0.045 |
| SH3GLB2 (UniProt Q9NR46) | inactive: 0.01 |
| SEPHS2 (UniProt Q99611) | inactive: 0.025 |
| SERPINA7 (UniProt P05543) | inactive: -0.111 |
| SERPINB6, A0A087X1N8 | inactive: 0.009 |
| SHC1 isoform 6 (UniProt P29353) | inactive: 0.012 |
| SERINC3 (UniProt Q13530) | inactive: 0.063 |
| SEL1L3 (UniProt Q68CR1) | inactive: 0.091 |
| SFXN5 (UniProt Q8TD22) | inactive: 0.023 |
| SH3GL1 (UniProt Q99961) | inactive: 0.022 |
| SEPTIN5 (UniProt Q99719) | inactive: 0.019 |
| SIRT2 (UniProt Q8IXJ6) | inactive: 0.017 |
| SIGMAR1 (UniProt Q99720) | inactive: 0.063 |
| SELENOF (UniProt O60613) | inactive: 0.018 |

compound: C1=CC=C(C=C1)C2=NC(=C(N2)C3=CC=NC=C3)C4=CC(=C(C=C4)Cl)O; test: as above
Summary of the method: as §1

| Target | log2 fold change |
| --- | --- |
| SFXN2 (UniProt Q96NB2) | inactive: -0.018 |
| SESN2 (UniProt P58004) | inactive: -0.009 |
| SGPL1 (UniProt O95470) | inactive: 0.01 |
| SGTA (UniProt O43765) | inactive: 0.02 |
| SIDT2 isoform 2 (UniProt Q8NBJ9) | inactive: -0.053 |
| SHOC2 (UniProt Q9UQ13) | inactive: -0.028 |
| SEPSECS (UniProt Q9HD40) | inactive: -0.017 |
| SERINC1 (UniProt Q9NRX5) | inactive: 0.018 |
| SERPINF1 (UniProt P36955) | inactive: -0.009 |
| SIN3A (UniProt Q96ST3) | inactive: 0.005 |
| SEH1L isoform 1 (UniProt Q96EE3) | inactive: 0 |
| SETD3 (UniProt Q86TU7) | inactive: 0.031 |
| SEPTIN9 (UniProt Q9UHD8) | inactive: 0.045 |
| SEPTIN4 isoform 4 (UniProt O43236) | inactive: 0.3 |
| SHCBP1 (UniProt Q8NEM2) | inactive: -0.104 |
| SENP6 (UniProt Q9GZR1) | inactive: -0.011 |

| Target | log2 fold change |
| --- | --- |
| SELENOH (UniProt Q8IZQ5) | inactive: 0.034 |
| SETMAR (UniProt Q53H47) | inactive: -0.01 |
| SKP1 (UniProt P63208) | inactive: 0.047 |
| SH3GLB2 (UniProt Q9NR46) | inactive: -0.033 |
| SEPHS2 (UniProt Q99611) | inactive: 0.144 |
| SERPINA7 (UniProt P05543) | inactive: -0.004 |
| SERPINB6, A0A087X1N8 | inactive: 0.067 |
| SHC1 isoform 6 (UniProt P29353) | inactive: 0.001 |
| SERINC3 (UniProt Q13530) | inactive: 0.006 |
| SEL1L3 (UniProt Q68CR1) | inactive: -0.07 |
| SFXN5 (UniProt Q8TD22) | inactive: 0.081 |
| SH3GL1 (UniProt Q99961) | inactive: 0.019 |
| SEPTIN5 (UniProt Q99719) | inactive: -0.011 |
| SIRT2 (UniProt Q8IXJ6) | inactive: 0.051 |
| SIGMAR1 (UniProt Q99720) | inactive: -0.032 |
| SELENOF (UniProt O60613) | inactive: -0.011 |
